Measurements published in US11230581B2, “Peptides and combination of peptides for use in immunotherapy against ovarian cancer and other cancers” (Immatics Biotechnologies GmbH, priority 2015, dated 2022).

How the values were obtained:
ovarian cancer samples = assay: Relative LC-MS quantitation of HLA-presented peptides: presentation and over-presentation on ovarian cancer vs a panel of normal tissues (presentation score); parameters: species or system human; key: +++: very highly over-presented on tumors compared to a panel of normal tissues; ++: highly over-presented on tumors compared to a panel of normal tissues; +: over-presented on tumors compared to a panel of normal tissues; settings: over-presentation on tumors compared to a panel of normal tissues
additional tumor types = assay: LC-MS detection and over-presentation of the peptides on additional tumor types, cell lines and primary cultures; parameters: species or system human; settings: for Other relevant organs/ cancerous diseases: Table 4A: additional tumor types on which the peptide was found, over-presented on more than 5% of measured tumor samples, or presented on more than 5% with ratio of geometric means tumor vs normal tissues larger than 3; for Additional organs/cancerous diseases: amendment of Table 4: additional tumor types showing over-presentation (including specific presentation) on more than 5% of measured tumor samples, or presentation on more than 5% with ratio of geometric means tumor vs normal tissues larger than 3

Row | Substance | Peptide Presentation (presentation score) (ovarian cancer samples) | Other relevant organs/ cancerous diseases (additional tumor types) | Additional organs/cancerous diseases (additional tumor types)
1 | 107 (FLQPVDDTQHL; listed as Homo sapiens) [compound 107] | +++ | Melanoma, Esophageal Cancer | Uterine Cancer, Gallbladder Cancer and Bile Duct Cancer
2 | 108 (ALFPGVALLLA; listed as Homo sapiens) [compound 108] | +++ | SCLC, HCC, Endometrium | Melanoma
3 | 110 (FLSQVDFEL; listed as Homo sapiens) [compound 110] | +++ | BrCa | 
4 | 111 (YVWGFYPAEV; listed as Homo sapiens) [compound 111] | +++ |  | CLL, Uterine Cancer, NHL
5 | 117 (ILPDGEDFLAV; listed as Homo sapiens) [compound 117] | +++ | SCLC | CLL, BRCA, Uterine Cancer, NHL
6 | 118 (KLIDNNINV; listed as Homo sapiens) [compound 118] | +++ | Brain Cancer | 
7 | 119 (FLYIGDIVSL; listed as Homo sapiens) [compound 119] | ++ | Leukemia | CLL, Melanoma
8 | 120 (ALLGIPLTLV; listed as Homo sapiens) [compound 120] | +++ |  | Uterine Cancer
9 | 123 (NLWDLTDASVV; listed as Homo sapiens) [compound 123] | +++ | SCLC, Prostate | NSCLC, BRCA, Melanoma, Esophageal Cancer, Uterine Cancer, Gallbladder Cancer and Bile Duct Cancer, HNSCC
10 | 124 (ALYETELADA; listed as Homo sapiens) [compound 124] | +++ |  | CLL, Uterine Cancer, AML, NHL
11 | 125 (VQIHQVAQV; listed as Homo sapiens) [compound 125] | +++ | NSCLC, SCLC, HCC, PC, Esophageal Cancer, Gallbladder Cancer, Bile Duct Cancer | 
12 | 127 (KIGDEPPKV; listed as Homo sapiens) [compound 127] | ++ | NSCLC, SCLC, Brain Cancer, PC, Esophageal Cancer, Uterine Cancer | BRCA, Melanoma, Urinary Bladder Cancer, Gallbladder Cancer and Bile Duct Cancer, HNSCC
13 | 129 (GLLDGGVDILL; listed as Homo sapiens) [compound 129] | ++ | HCC, Leukemia, Esophageal Cancer, Uterine Cancer | HNSCC
14 | 131 (FVPPVTVFPSL; listed as Homo sapiens) [compound 131] | +++ | BrCa | Uterine Cancer
15 | 132 (LLVEQPPLAGV; listed as Homo sapiens) [compound 132] | +++ | Leukemia | CLL, Melanoma
16 | 134 (YLQELIFSV; listed as Homo sapiens) [compound 134] | +++ | Endometrium | CLL, HNSCC

Row | Substance | Peptide Presentation (presentation score) (ovarian cancer samples) | Other relevant organs/ cancerous diseases (additional tumor types) | Additional organs/cancerous diseases (additional tumor types)
17 | 135 (ALSEVDFQL; listed as Homo sapiens) [compound 135] | +++ | SCLC, Brain Cancer | 
18 | 137 (TLVLTLPTV; listed as Homo sapiens) [compound 137] | +++ |  | SCLC, CLL, Urinary Bladder Cancer, Uterine Cancer, Gallbladder Cancer and Bile HDuct Cancer, AML, NHL, NSCC
19 | 138 (YQYPRAILSV; listed as Homo sapiens) [compound 138] | +++ |  | NSCLC, AML
20 | 139 (SVMEVNSGIYRV; listed as Homo sapiens) [compound 139] | +++ | HCC, MCC | SCLC, CLL, Urinary Bladder Cancer, Uterine Cancer, Gallbladder Cancer and Bile Duct Cancer, NHL, HNSCC
21 | 141 (YLDFSNNRL; listed as Homo sapiens) [compound 141] | +++ | SCLC, BrCa | CLL
22 | 142 (FLFATPVFI; listed as Homo sapiens) [compound 142] | +++ | SCLC | 
23 | 143 (LLLDITPEI; listed as Homo sapiens) [compound 143] | +++ | NSCLC, Brain Cancer, HCC, PC, BrCa, Melanoma, Esophageal Cancer | 
24 | 144 (YIMEPSIFNTL; listed as Homo sapiens) [compound 144] | ++ | HCC, Leukemia, Melanoma, Urinary bladder Cancer | CLL, BRCA
25 | 145 (FLATSGTLAGI; listed as Homo sapiens) [compound 145] | +++ | Prostate | 
26 | 146 (SLATAGDGLIEL; listed as Homo sapiens) [compound 146] | +++ | Urinary bladder, Endometrium | BRCA
27 | 147 (SLLEAVSFL; listed as Homo sapiens) [compound 147] | + |  | Gallbladder Cancer and Bile Duct Cancer, AML, HNSCC
28 | 148 (ALNPEIVSV; listed as Homo sapiens) [compound 148] | +++ | Esophageal Cancer, Urinary bladder Cancer | SCLC, CLL, Melanoma, NHL, HNSCC
29 | 149 (NLLELFVQL; listed as Homo sapiens) [compound 149] | +++ | SCLC, Leukemia, BrCa, Urinary bladder Cancer, Uterine Cancer | 
30 | 150 (RLWEEGEELEL; listed as Homo sapiens) [compound 150] | +++ | NSCLC, Melanoma, Esophageal Cancer | Uterine Cancer, Gallbladder Cancer and Bile Duct Cancer, HNSCC
31 | 151 (KILQQLVTL; listed as Homo sapiens) [compound 151] | +++ | Endometrium | BRCA, Melanoma, Gallbladder Cancer and Bile Duct Cancer
32 | 152 (ILFEDIFDV; listed as Homo sapiens) [compound 152] | +++ | SCLC, Endometrium | BRCA, Gallbladder Cancer and Bile Duct Cancer
